Residue numbers refer to the chain shown, from its start. Results are given in words; binding and its absence hold for the method and conditions named. Some binding calls cover weakened binding; strength is not graded here.
How the values were obtained:
[1] = biological target: human CD47 on cells (SHP-77 tumor cells, human red blood cells, CCRF-CEM cells, human CD47 CHO-K1 stable cell line) (human) (UniProt Q08722); test: flow cytometry on CHO-K1 cells over-expressing human CD47, Alexa Fluor 647 goat anti-human IgG secondary antibody, MFI [Continued) g]
[2] = biological target: cynomolgus CD47 on CHO-K1 stable cell line (cynomolgus); test: flow cytometry on CHO-K1 cells over-expressing cynomolgus CD47, Alexa Fluor 647 goat anti-human IgG secondary antibody, MFI [Continued) g]
[3] = biological target: human CD47 on cells (SHP-77 tumor cells, human red blood cells, CCRF-CEM cells, human CD47 CHO-K1 stable cell line) (human) (UniProt Q08722); test: flow cytometry on human red blood cells, Alexa Fluor 647 goat anti-human IgG secondary antibody, geometric MFI [Continued) k]
[4] = biological target: human CD47 on cells (SHP-77 tumor cells, human red blood cells, CCRF-CEM cells, human CD47 CHO-K1 stable cell line) (human) (UniProt Q08722); test: flow cytometry on SHP-77 tumor cells, Alexa Fluor 647 goat anti-human IgG secondary antibody, geometric MFI [Continued) k]
[5] = biological target: human CD47 on cells (SHP-77 tumor cells, human red blood cells, CCRF-CEM cells, human CD47 CHO-K1 stable cell line) (human) (UniProt Q08722); test: flow cytometry on human red blood cells, Alexa Fluor 647 goat anti-human IgG secondary antibody, geometric MFI [Continued) l]
[6] = biological target: human CD47 on cells (SHP-77 tumor cells, human red blood cells, CCRF-CEM cells, human CD47 CHO-K1 stable cell line) (human) (UniProt Q08722); test: flow cytometry on SHP-77 tumor cells, Alexa Fluor 647 goat anti-human IgG secondary antibody, geometric MFI [Continued) l]
[7] = biological target: human CD47 on cells (SHP-77 tumor cells, human red blood cells, CCRF-CEM cells, human CD47 CHO-K1 stable cell line) (human) (UniProt Q08722); test: flow cytometry on SHP-77 tumor cells, Alexa Fluor 647 goat anti-human IgG secondary antibody, geometric MFI [Continued) m]
[8] = biological target: human CD47 on cells (SHP-77 tumor cells, human red blood cells, CCRF-CEM cells, human CD47 CHO-K1 stable cell line) (human) (UniProt Q08722); test: flow cytometry on human red blood cells, Alexa Fluor 647 goat anti-human IgG secondary antibody, geometric MFI [Continued) m]
[9] = biological target: human CD47 on cells (SHP-77 tumor cells, human red blood cells, CCRF-CEM cells, human CD47 CHO-K1 stable cell line) (human) (UniProt Q08722); test: flow cytometry on SHP-77 tumor cells, Alexa Fluor 647 goat anti-human IgG secondary antibody, geometric MFI [Continued) n]
[10] = biological target: human CD47 on cells (SHP-77 tumor cells, human red blood cells, CCRF-CEM cells, human CD47 CHO-K1 stable cell line) (human) (UniProt Q08722); test: flow cytometry on CHO-K1 cells over-expressing human CD47, Alexa Fluor 647 goat anti-human IgG secondary antibody, MFI [Continued) h]
[11] = biological target: cynomolgus CD47 on CHO-K1 stable cell line (cynomolgus); test: flow cytometry on CHO-K1 cells over-expressing cynomolgus CD47, Alexa Fluor 647 goat anti-human IgG secondary antibody, MFI [Continued) h]
[12] = biological target: human CD47 on cells (SHP-77 tumor cells, human red blood cells, CCRF-CEM cells, human CD47 CHO-K1 stable cell line) (human) (UniProt Q08722); test: flow cytometry on human red blood cells, Alexa Fluor 647 goat anti-human IgG secondary antibody, geometric MFI [Continued) n]
[13] = biological target: human CD47 on cells (SHP-77 tumor cells, human red blood cells, CCRF-CEM cells, human CD47 CHO-K1 stable cell line) (human) (UniProt Q08722); test: flow cytometry on human red blood cells, Alexa Fluor 647 goat anti-human IgG secondary antibody, geometric MFI [Continued) o]
[14] = biological target: human CD47 on cells (SHP-77 tumor cells, human red blood cells, CCRF-CEM cells, human CD47 CHO-K1 stable cell line) (human) (UniProt Q08722); test: flow cytometry on SHP-77 tumor cells, Alexa Fluor 647 goat anti-human IgG secondary antibody, geometric MFI [Continued) o]
[15] = biological target: cynomolgus CD47 on CHO-K1 stable cell line (cynomolgus); test: flow cytometry on CHO-K1 cells over-expressing cynomolgus CD47, Alexa Fluor 647 goat anti-human IgG secondary antibody, MFI [Continued) i]
[16] = biological target: human CD47 on cells (SHP-77 tumor cells, human red blood cells, CCRF-CEM cells, human CD47 CHO-K1 stable cell line) (human) (UniProt Q08722); test: flow cytometry on CHO-K1 cells over-expressing human CD47, Alexa Fluor 647 goat anti-human IgG secondary antibody, MFI [Continued) i]
[17] = biological target: cynomolgus CD47 on CHO-K1 stable cell line (cynomolgus); test: flow cytometry on CHO-K1 cells over-expressing cynomolgus CD47, Alexa Fluor 647 goat anti-human IgG secondary antibody, MFI

The chains behind the UniProt entries cited, without tags or fusion partners. Residues count along the entry.
UniProt Q08722, residues 19-323: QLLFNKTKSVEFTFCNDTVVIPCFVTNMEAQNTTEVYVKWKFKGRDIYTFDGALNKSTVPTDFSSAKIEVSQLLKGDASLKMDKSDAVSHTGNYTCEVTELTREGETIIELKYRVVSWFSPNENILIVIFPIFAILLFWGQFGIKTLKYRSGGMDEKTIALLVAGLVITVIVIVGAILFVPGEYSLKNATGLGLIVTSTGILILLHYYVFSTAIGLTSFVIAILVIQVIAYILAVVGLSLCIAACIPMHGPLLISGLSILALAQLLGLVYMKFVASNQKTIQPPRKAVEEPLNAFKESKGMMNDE

B1: 108VH10.Mk / 108VL10.Me (antibody, V domains shown)
VH: EVQLVESGGGLVQPGGSLRLSCAASGFTFSHHWIHWVRQAPGKGLEWVAMIDASDSETRLSQKVKDRFTISADTSKNTAYLQMNSLRAEDTAVYYCSRLGRYYFDYWGQGTLVTVSS
VL: DIQMTQSPSSLSASVGDRVTITCRASQSISSYLNWYQQKPGKAPKLLIYGASSRYSGVPSRFSGSRSGTDFTLTISSLQPEDFATYYCGESYGHLYTFGQGTKVEIK
- binding [1]: binds
- binding [2]: binds
- binding [3]: binds
- binding [4]: binds

B2: 108VH10.Mo / 108VL10.Me (antibody, V domains shown)
VH: B1 VH with Q62D, K63S, V64F, D66G
VL: B1 VL
- binding [5]: binds
- binding [6]: binds

B3: 108VH10.Mp / 108VL10.Me (antibody, V domains shown)
VH: B1 VH with S61V, Q62D, K63S, V64F, D66G
VL: B1 VL
- binding [7]: binds
- binding [8]: binds

B4: 108VH10.Mq / 108VL10.Me (antibody, V domains shown)
VH: B1 VH with Q62D, K63S, D66G
VL: B1 VL
- binding [9]: binds
- binding [10]: binds
- binding [11]: binds
- binding [12]: binds

B5: 108VH10.Mr / 108VL10.Me (antibody, V domains shown)
VH: B1 VH with S61V, Q62D, K63S, D66G
VL: B1 VL
- binding [13]: binds
- binding [14]: binds
- binding [15]: binds
- binding [16]: binds

B6: 108VH4.M4-VL1.M1 (antibody, V domains shown)
VH: EVQLVQSGAEVKKPGSSVKVSCKASGYSFTHHWIHWVRQAPGQGLEWMGMIDASDSETRLSQKFKDRVTITADKSTSTAYMELSSLRSEDTAVYYCARLGRYYFDYWGQGTTVTVSS
VL: EIVLTQSPATLSLSPGERATLSCRASENVGTYISWYQQKPGQAPRLLIYGASNRYTGIPARFSGSGSGTDFTLTISSLEPEDFAVYYCGESYGHLYTFGGGTKVEIK
- binding [17]: binds

— patent publication US20260132197A1
